Test: RRT study: LC-MS/MS urinary proteomics, AKI after cardiac surgery, RRT vs No RRT
Set-up: species or system human
Conditions: patients who did vs did not require RRT/dialysis; for Up or Down: direction of urinary abundance; for Mean Fold Change: read with the Up or Down column

Molecule	Up or Down	Mean Fold Change
Cadherin-13 (protein, UniProt P55290 139-693, looked up) Cadherin-13: SIVVSPILIPENQRQPFPRDVGKVVDSDRPERSKFRLTGKGVDQEPKGIFRINENTGSVSVTRTLDREVIAVYQLFVETTDVNGKTLEGPVPLEVIVIDQNDNRPIFREGPYIGHVMEGSPTGTTVMRMTAFDADDPATDNALLRYNIRQQTPDKPSPNMFYIDPEKGDIVTVVSPALLDRETLENPKYELIIEAQDMAGLDVGLTGTATATIMIDDKNDHSPKFTKKEFQATVEEGAVGVIVNLTVEDKDDPTTGAWRAAYTIINGNPGQSFEIHTNPQTNEGMLSVVKPLDYEISAFHTLLIKVENEDPLVPDVSYGPSSTATVHITVLDVNEGPVFYPDPMMVTRQEDLSVGSVLLTVNATDPDSLQHQTIRYSVYKDPAGWLNINPINGTVDTTAVLDRESPFVDNSVYTALFLAIDSGNPPATGTGTLLITLEDVNDNAPFIYPTVAEVCDDAKNLSVVILGASDKDLHPNTDPFKFEIHKQAVPDKVWKISKINNTHALVSLLQNLNKANYNLPIMVTDSGKPPMTNITDLRVQVCSCRNSKVDCNAAG	Up	1.294
Ig alpha-2 chain C region (protein, UniProt P01877 1-391, looked up) Immunoglobulin heavy constant …: ASPTSPKVFPLSLDSTPQDGNVVVACLVQGFFPQEPLSVTWSESGQNVTARNFPPSQDASGDLYTTSSQLTLPATQCPDGKSVTCHVKHYTNSSQDVTVPCRVPPPPPCCHPRLSLHRPALEDLLLGSEANLTCTLTGLRDASGATFTWTPSSGKSAVQGPPERDLCGCYSVSSVLPGCAQPWNHGETFTCTAAHPELKTPLTANITKSGNTFRPEVHLLPPPSEELALNELVTLTCLARGFSPKDVLVRWLQGSQELPREKYLTWASRQEPSQGTTTYAVTSILRVAAEDWKKGETFSCMVGHEALPLAFTQKTIDRMAGSCCVADWQMPPPYVVLDLPQETLEEETPGANLWPTTITFLTLFLLSLFYSTALTVTSVRGPSGKREGPQY	Up	2.589
Endothelial protein C receptor (protein, UniProt Q9UNN8 18-238, looked up) Endothelial protein C receptor: SQDASDGLQRLHMLQISYFRDPYHVWYQGNASLGGHLTHVLEGPDTNTTIIQLQPLQEPESWARTQSGLQSYLLQFHGLVRLVHQERTLAFPLTIRCFLGCELPPEGSRAHVFFEVAVNGSSFVSFRPERALWQADTQVTSGVVTFTLQQLNAYNRTRYELREFLEDTCVQYVQKHISAENTKGSQTSRSYTSLVLGVLVGSFIIAGVAVGIFLCTGGRRC	Up	1.695
Fibulin-1 (protein, UniProt P23142 30-703, looked up) Fibulin-1: DVLLEACCADGHRMATHQKDCSLPYATESKECRMVQEQCCHSQLEELHCATGISLANEQDRCATPHGDNASLEATFVKRCCHCCLLGRAAQAQGQSCEYSLMVGYQCGQVFQACCVKSQETGDLDVGGLQETDKIIEVEEEQEDPYLNDRCRGGGPCKQQCRDTGDEVVCSCFVGYQLLSDGVSCEDVNECITGSHSCRLGESCINTVGSFRCQRDSSCGTGYELTEDNSCKDIDECESGIHNCLPDFICQNTLGSFRCRPKLQCKSGFIQDALGNCIDINECLSISAPCPIGHTCINTEGSYTCQKNVPNCGRGYHLNEEGTRCVDVDECAPPAEPCGKGHRCVNSPGSFRCECKTGYYFDGISRMCVDVNECQRYPGRLCGHKCENTLGSYLCSCSVGFRLSVDGRSCEDINECSSSPCSQECANVYGSYQCYCRRGYQLSDVDGVTCEDIDECALPTGGHICSYRCINIPGSFQCSCPSSGYRLAPNGRNCQDIDECVTGIHNCSINETCFNIQGGFRCLAFECPENYRRSAATLQQEKTDTVRCIKSCRPNDVTCVFDPVHTISHTVISLPTFREFTRPEEIIFLRAITPPHPASQANIIFDITEGNLRDSFDIIKRYMDGMTVGVVRQVRPIVGPFHAVLKLEMNYVVGGVVSHRNVVNVHIFVSEYWF	Up	3.52
SPARC-like protein 1 (protein, UniProt Q14515 17-664, looked up) SPARC-like protein 1: IPTNARLLSDHSKPTAETVAPDNTAIPSLRAEAEENEKETAVSTEDDSHHKAEKSSVLKSKEESHEQSAEQGKSSSQELGLKDQEDSDGHLSVNLEYAPTEGTLDIKEDMSEPQEKKLSENTDFLAPGVSSFTDSNQQESITKREENQEQPRNYSHHQLNRSSKHSQGLRDQGNQEQDPNISNGEEEEEKEPGEVGTHNDNQERKTELPREHANSKQEEDNTQSDDILEESDQPTQVSKMQEDEFDQGNQEQEDNSNAEMEEENASNVNKHIQETEWQSQEGKTGLEAISNHKETEEKTVSEALLMEPTDDGNTTPRNHGVDDDGDDDGDDGGTDGPRHSASDDYFIPSQAFLEAERAQSIAYHLKIEEQREKVHENENIGTTEPGEHQEAKKAENSSNEEETSSEGNMRVHAVDSCMSFQCKRGHICKADQQGKPHCVCQDPVTCPPTKPLDQVCGTDNQTYASSCHLFATKCRLEGTKKGHQLQLDYFGACKSIPTCTDFEVIQFPLRMRDWLKNILMQLYEANSEHAGYLNEKQRNKVKKIYLDEKRLLAGDHPIDLLLRDFKKNYHMYVYPVHWQFSELDQHPMDRVLTHSELAPLRASLVPMEHCITRFFEECDPNKDKHITLKEWGHCFGIKEEDIDENLLF	Up	3.045
Lithostathine-1-beta (protein, UniProt P48304 23-166, looked up) Lithostathine-1-beta: QESQTELPNPRISCPEGTNAYRSYCYYFNEDPETWVDADLYCQNMNSGNLVSVLTQAEGAFVASLIKESSTDDSNVWIGLHDPKKNRRWHWSSGSLVSYKSWDTGSPSSANAGYCASLTSCSGFKKWKDESCEKKFSFVCKFKN	Up	1.247
Nidogen-1 (protein, UniProt P14543 29-1247, looked up) Nidogen-1: LSRQELFPFGPGQGDLELEDGDDFVSPALELSGALRFYDRSDIDAVYVTTNGIIATSEPPAKESHPGLFPPTFGAVAPFLADLDTTDGLGKVYYREDLSPSITQRAAECVHRGFPEISFQPSSAVVVTWESVAPYQGPSRDPDQKGKRNTFQAVLASSDSSSYAIFLYPEDGLQFHTTFSKKENNQVPAVVAFSQGSVGFLWKSNGAYNIFANDRESVENLAKSSNSGQQGVWVFEIGSPATTNGVVPADVILGTEDGAEYDDEDEDYDLATTRLGLEDVGTTPFSYKALRRGGADTYSVPSVLSPRRAATERPLGPPTERTRSFQLAVETFHQQHPQVIDVDEVEETGVVFSYNTDSRQTCANNRHQCSVHAECRDYATGFCCSCVAGYTGNGRQCVAEGSPQRVNGKVKGRIFVGSSQVPIVFENTDLHSYVVMNHGRSYTAISTIPETVGYSLLPLAPVGGIIGWMFAVEQDGFKNGFSITGGEFTRQAEVTFVGHPGNLVIKQRFSGIDEHGHLTIDTELEGRVPQIPFGSSVHIEPYTELYHYSTSVITSSSTREYTVTEPERDGASPSRIYTYQWRQTITFQECVHDDSRPALPSTQQLSVDSVFVLYNQEEKILRYALSNSIGPVREGSPDALQNPCYIGTHGCDTNAACRPGPRTQFTCECSIGFRGDGRTCYDIDECSEQPSVCGSHTICNNHPGTFRCECVEGYQFSDEGTCVAVVDQRPINYCETGLHNCDIPQRAQCIYTGGSSYTCSCLPGFSGDGQACQDVDECQPSRCHPDAFCYNTPGSFTCQCKPGYQGDGFRCVPGEVEKTRCQHEREHILGAAGATDPQRPIPPGLFVPECDAHGHYAPTQCHGSTGYCWCVDRDGREVEGTRTRPGMTPPCLSTVAPPIHQGPAVPTAVIPLPPGTHLLFAQTGKIERLPLEGNTMRKTEAKAFLHVPAKVIIGLAFDCVDKMVYWTDITEPSIGRASLHGGEPTTIIRQDLGSPEGIAVDHLGRNIFWTDSNLDRIEVAKLDGTQRRVLFETDLVNPRGIVTDSVRGNLYWTDWNRDNPKIETSYMDGTNRRILVQDDLGLPNGLTFDAFSSQLCWVDAGTNRAECLNPSQPSRRKALEGLQYPFAVTSYGKNLYFTDWKMNSVVALDLAISKETDAFQPHKQTRLYGITTALSQCPQGHNYCSVNNGGCTHLCLATPGSRTCRCPDNTLGVDCIEQK	Up	1.307
Cystatin-B (protein, UniProt P04080 1-98, looked up) Cystatin-B: MMCGAPSATQPATAETQHIADQVRSQLEEKENKKFPVFKAVSFKSQVVAGTNYFIKVHVGDEDFVHLRVFQSLPHENKPLTLSNYQTNKAKHDELTYF	Up	58.14
6-phosphogluconolactonase (protein, UniProt O95336 2-258, looked up) 6-phosphogluconolactonase: AAPAPGLISVFSSSQELGAALAQLVAQRAACCLAGARARFALGLSGGSLVSMLARELPAAVAPAGPASLARWTLGFCDERLVPFDHAESTYGLYRTHLLSRLPIPESQVITINPELPVEEAAEDYAKKLRQAFQGDSIPVFDLLILGVGPDGHTCSLFPDHPLLQEREKIVAPISDSPKPPPQRVTLTLPVLNAARTVIFVATGEGKAAVLKRILEDQEENPLPAALVQPHTGKLCWFLDEAAARLLTVPFEKHSTL	Up	2.382
Fibulin-5 (protein, UniProt Q9UBX5 24-448, looked up) Fibulin-5: QAQCTNGFDLDRQSGQCLDIDECRTIPEACRGDMMCVNQNGGYLCIPRTNPVYRGPYSNPYSTPYSGPYPAAAPPLSAPNYPTISRPLICRFGYQMDESNQCVDVDECATDSHQCNPTQICINTEGGYTCSCTDGYWLLEGQCLDIDECRYGYCQQLCANVPGSYSCTCNPGFTLNEDGRSCQDVNECATENPCVQTCVNTYGSFICRCDPGYELEEDGVHCSDMDECSFSEFLCQHECVNQPGTYFCSCPPGYILLDDNRSCQDINECEHRNHTCNLQQTCYNLQGGFKCIDPIRCEEPYLRISDNRCMCPAENPGCRDQPFTILYRDMDVVSGRSVPADIFQMQATTRYPGAYYIFQIKSGNEGREFYMRQTGPISATLVMTRPIKGPREIQLDLEMITVNTVINFRGSSVIRLRIYVSQYPF	Up	1.011
Syndecan-1 (protein, UniProt P18827 23-310, looked up) Syndecan-1: QIVATNLPPEDQDGSGDDSDNFSGSGAGALQDITLSQQTPSTWKDTQLLTAIPTSPEPTGLEATAASTSTLPAGEGPKEGEAVVLPEVEPGLTAREQEATPRPRETTQLPTTHLASTTTATTAQEPATSHPHRDMQPGHHETSTPAGPSQADLHTPHTEDGGPSATERAAEDGASSQLPAAEGSGEQDFTFETSGENTAVVAVEPDRRNQSPVDQGATGASQGLLDRKEVLGGVIAGGLVGLIFAVCLVGFMLYRMKKKDEGSYSLEEPKQANGGAYQKPTKQEEFYA	Up	2.852

Source: patent US20140038203A1, “METHODS FOR DETECTING OR PREDICTING KIDNEY DISEASE” (MUSC FOUNDATION FOR RESEARCH DEVELOPMENT, priority 2012, published 2014)
